Source: publication PMC12363165

Sequences of proteins named here, by UniProt entry; tags and fusion partners are left off.
UniProt P05923: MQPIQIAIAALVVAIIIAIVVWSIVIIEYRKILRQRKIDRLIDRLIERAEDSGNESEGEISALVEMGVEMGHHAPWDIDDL

Assays:
[1] = target: Vpu-V5-APEX2 (HIV-1 viral protein U fused to a V5-APEX2 tag) (HIV-1) (UniProt P05923); test: proximity labelling; APEX2 labelling in HeLa cells transfected with Vpu-APEX2 (control APEX2-NES); biotinyl tyramide 30 min, 1 mM H2O2 1 min; streptavidin beads, on-bead digestion, label-free quantitative mass spectrometry; hits Log2FC > 2, P < 0.05
[2] = target: Vpu-V5-APEX2 (HIV-1 viral protein U fused to a V5-APEX2 tag) (HIV-1) (UniProt P05923); test: affinity purification with mass spectrometry; HeLa cells transfected with Vpu-APEX2 or APEX2-NES, 48 h; Pierce IP lysis buffer; anti-V5 magnetic beads 2 h at 4 C; washes 50 mM Tris-HCl pH 7.5, 150 mM NaCl, 0.05% NP-40; gel, trypsin, mass spectrometry; hits Log2FC > 2, score > 3

B1: FAR1, endogenous (protein, UniProt Q8WVX9 1-515)
chain: MVSIPEYYEGKNVLLTGATGFLGKVLLEKLLRSCPKVNSVYVLVRQKAGQTPQERVEEVLSGKLFDRLRDENPDFREKIIAINSELTQPKLALSEEDKEVIIDSTNIIFHCAATVRFNENLRDAVQLNVIATRQLILLAQQMKNLEVFMHVSTAYAYCNRKHIDEVVYPPPVDPKKLIDSLEWMDDGLVNDITPKLIGDRPNTYIYTKALAEYVVQQEGAKLNVAIVRPSIVGASWKEPFPGWIDNFNGPSGLFIAAGKGILRTIRASNNALADLVPVDVVVNMSLAAAWYSGVNRPRNIMVYNCTTGSTNPFHWGEVEYHVISTFKRNPLEQAFRRPNVNLTSNHLLYHYWIAVSHKAPAFLYDIYLRMTGRSPRMMKTITRLHKAMVFLEYFTSNSWVWNTENVNMLMNQLNPEDKKTFNIDVRQLHWAEYIENYCLGTKKYVLNEEMSGLPAARKHLNKLRNIRYGFNTILVILIWRIFIARSQMARNIWYFVVSLCYKFLSYFRASSTMRY
[1]
  binding: binds
[2]
  binding: binds

Results are given in words; binding and its absence hold for the method and conditions named. In cells and extracts the contact can be indirect. A yes stands for co-enrichment or nearness to the bait. Other partners may have been found.
